Experimental data published in PubChem BioAssay AID1671190 (National Center for Advancing Translational Sciences (NCATS), 2021).
Among all 580,000 compounds or so, about 6,100 (1.1%) were called active. Inconclusive means that the source gave no clear call. Such entries were picked first, then a sample of the others. The call rests on the fitted dose curve; in most records, active means well fitted inhibition curve with a large enough effect; inconclusive means small, poorly fitted or top-dose-only effect, or another doubt; inactive means no such curve, though single readings can be large or run the other way. Potencies of inconclusive entries are doubtful fits and often do not repeat.

Chains of the proteins cited; added tags and fusions are not shown. Lines headed by an entry give the natural chain unless they say otherwise; changes in a name come on top.
UniProt P18054: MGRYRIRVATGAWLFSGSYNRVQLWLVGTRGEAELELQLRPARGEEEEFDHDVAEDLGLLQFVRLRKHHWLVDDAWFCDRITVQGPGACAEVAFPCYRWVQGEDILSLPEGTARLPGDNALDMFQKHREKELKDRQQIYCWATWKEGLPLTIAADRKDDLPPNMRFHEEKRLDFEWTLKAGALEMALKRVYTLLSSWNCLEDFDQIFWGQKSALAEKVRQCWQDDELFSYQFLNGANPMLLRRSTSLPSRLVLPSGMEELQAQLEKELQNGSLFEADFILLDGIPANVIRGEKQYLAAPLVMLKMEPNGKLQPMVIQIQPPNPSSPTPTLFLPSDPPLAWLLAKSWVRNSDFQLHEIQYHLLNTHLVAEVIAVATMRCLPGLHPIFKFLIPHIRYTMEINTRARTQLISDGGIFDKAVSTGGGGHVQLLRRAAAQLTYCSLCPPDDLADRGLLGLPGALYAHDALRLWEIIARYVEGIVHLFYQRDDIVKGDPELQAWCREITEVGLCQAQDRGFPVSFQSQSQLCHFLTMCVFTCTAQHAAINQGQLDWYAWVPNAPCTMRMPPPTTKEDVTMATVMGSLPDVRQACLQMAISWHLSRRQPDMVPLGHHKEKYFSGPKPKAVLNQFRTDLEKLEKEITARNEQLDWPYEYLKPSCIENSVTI

Molecular target: Polyunsaturated fatty acid lipoxygenase ALOX12 (Homo sapiens) (UniProt P18054)
Experiment: Primary qHTS assay for inhibitors of human arachidonate 12S-lipoxygenase (ALOX12): Round 2
Details: purified 12hLO, xylenol orange hydroperoxide absorbance; activity change, negative = inhibition: at 108 µM (top of the series) unless noted
In short: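 Purified human 12hLO (150 nM final) in 25 mM Hepes, 0.01% Triton X-100, pH 7.0 was preincubated 15 min at room temperature with compound. Then 40 uM arachidonic acid was added, 30 min. Hydroperoxide was read by Fe-XO absorbance ratio 573/405 nm.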
On the % scale 0 is the no-effect control and ±100 the full control effect; potency means the concentration at half of the fitted maximal effect.

Compound | Potency | activity change, negative = inhibition
COc1ccc(N2CCC[C@@H]2/C=C/C(=O)OCc2ccccc2)cc1 | inconclusive: 89.1 µM [inhibitor, single point] | 
N#C/C(=C\c1ccc(OC(=O)c2ccc(Br)cc2)cc1)C(=O)Nc1ccccc1C(F)(F)F | inconclusive: 56.2 µM [inhibitor, partial curve, poor fit] | 
CC(C)c1ccc(-n2nnnc2SCC(=O)N(Cc2ccco2)C2=CCCCC2)cc1 | inconclusive: 39.8 µM [inhibitor, partial curve, poor fit] | 
O=C(Cn1cc(S(=O)(=O)Cc2ccccc2F)c2ccccc21)NCc1ccccc1Cl | inconclusive: 126 µM [inhibitor, partial curve, poor fit] | 
Cn1c(=O)c2c(nc(Br)n2Cc2ccc(F)cc2)n(C)c1=O | inconclusive: 112 µM [inhibitor, single point] | 
COC(=O)CNC(=O)COC(=O)/C=C/c1ccc2ccccc2n1 | inconclusive: 50.1 µM [inhibitor, partial curve, poor fit] | 
CCOC(=O)c1c(NC(=O)C(C)Oc2ccc(Cl)c(C)c2)sc2c1CCCC2 (configuration not stated) |  | inactive: 0.12%
COc1cc(-c2nc3c(c(=O)[nH]c(=O)n3Cc3ccccc3)n2CC2CCCO2)ccc1O (configuration not stated) |  | inconclusive: -32.2% [inhibitor]
C=CCNC(=O)COCC(=O)O | inconclusive: 50.1 µM [inhibitor, partial curve, poor fit] | 
CCCSc1nnc2n(-c3ccc(OC)cc3)c(=O)c3c4c(sc3n12)COC(C(C)C)C4 (configuration not stated) | inconclusive: 112 µM [inhibitor, partial curve, poor fit] | 
COc1ccc(C(=O)COC(=O)c2sc(C)nc2C)cc1F | inconclusive: 44.7 µM [inhibitor, partial curve] | 
CC1CCCC/C1=N\NC(=S)Nc1ccc(C(C)C)cc1 (configuration not stated) | inconclusive: 44.7 µM [inhibitor, partial curve, poor fit] | 
Cc1ccc(Cc2c(-c3ccc(C#N)cc3)nc3ccc(C)cn23)cc1 | inconclusive: 70.8 µM [inhibitor, single point] | 
COc1ccc(OCC2(C)COc3ccc(C(=O)NCC(C)C)cc3N2)cc1 (configuration not stated) | inconclusive: 112 µM [inhibitor, partial curve, poor fit] | 
CSc1nc2c(c(=O)n(C)c(=O)n2C)n1CCCc1ccccc1 |  | inactive: -7.46%
O=C1Cc2cc(C(=O)NCCc3ccc4c(c3)OCO4)ccc2N1 | inconclusive: 28.2 µM [inhibitor, partial curve, poor fit] | 
C=CCn1c(-c2csc(-c3ccc(Cl)cc3)n2)n[nH]c1=S | inconclusive: 14.1 µM [inhibitor, partial curve, poor fit] | 

Another view of part of the listing above:
CCOC(=O)c1c(NC(=O)C(C)Oc2ccc(Cl)c(C)c2)sc2c1CCCC2 (configuration not stated)
  activity change, negative = inhibition: inactive: 0.12%
COc1ccc(OCC2(C)COc3ccc(C(=O)NCC(C)C)cc3N2)cc1 (configuration not stated)
  Potency: inconclusive: 112 µM [inhibitor, partial curve, poor fit]
